Values from PubChem BioAssay AID743454 (Peter MacCallum Cancer Centre, 2014).

Purpose: 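Search for knock-downs that restore vorinostat killing in resistant colon cancer cells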 (primary screen)
System: human HCT116-VR colon cancer cells, selected for vorinostat resistance
Reagent: siRNA pool against human genes, 40 nM siRNA pool
Duration: vorinostat for 24 h, read-out about 72 h after transfection
Challenge: vorinostat at 2.5 µM final
Measurement: 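Cell viability by CellTiter-Fluor and caspase 3/7 activity by luminescence, each scaled to mock wells per plate, duplicates averaged, then robust z-scored over all plates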
Reading the numbers: viability robust z-score: higher = more viable cells than screen typical; caspase robust z-score: higher = more caspase 3/7 activity than screen typical
Call rule: 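a knock-down is a hit when classed RV1 or RV2 for lowered viability, or CA1 or CA2 for caspase activation; those lethal without drug were dropped; hits were retested singly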
In all, the deposit lists about 18,000 reagents; this is a part drawn at random. Over the whole deposit, 450 (2.5%) got an active call. 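Single biological run; no consistent viability z cut-off exists, so the class columns, not z-scores, define the calls.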

| Gene | viability hit class | caspase hit class | viability robust z-score | caspase robust z-score | activity call |
| --- | --- | --- | --- | --- | --- |
| ZDHHC9 | no change | no change | 0.13 | 3.3 | inactive |
| HCP5 | no change | no change | -1.23 | 0.26 | inactive |
| GALNT18 | no change | no change | 1.04 | -0.53 | inactive |
| LURAP1 | no change | no change | 0.52 | 0.29 | inactive |
| CTSV | no change | no change | -0.12 | -0.2 | inactive |
| CYP1A1 | no change | no change | -0.74 | -0.27 | inactive |
| OBI1 | no change | no change | -0.11 | 0.6 | inactive |
| SLC9A7 | no change | no change | 0.65 | -0.9 | inactive |
| SPHAR (retired record) | no change | no change | 1.49 | -0.7 | inactive |
| SLC25A28 | no change | no change | 0.28 | -0.1 | inactive |
| MND1 | no change | no change | 0.03 | -1.13 | inactive |
| KCNT1 | no change | no change | -1.46 | 4.91 | inactive |
| KATNAL2 | no change | no change | 0.01 | -0.2 | inactive |
| WDR12 | no change | no change | -0.89 | 5.09 | inactive |
| GRHL1 | no change | no change | 0.26 | 0.38 | inactive |
| RBMY1F | no change | no change | 0.17 | -0.5 | inactive |
| RAP1B | no change | no change | 0.36 | 0.18 | inactive |
| NIBAN3 | no change | no change | -0.72 | 0.86 | inactive |
| TMTC2 | no change | no change | -1.05 | -0.88 | inactive |
| RAB39A | no change | no change | -0.04 | -0.1 | inactive |
| NMU | no change | no change | -0.73 | -1.28 | inactive |
| CPQ | no change | no change | -2.04 | 4.06 | inactive |
| DLGAP5 | no change | no change | 0.23 | 0.03 | inactive |
| HAUS6 | no change | no change | -1.1 | 0.92 | inactive |
| DOCK4 | no change | no change | -0.53 | 0.52 | inactive |
| MYBPC2 | no change | no change | -0.93 | 0.56 | inactive |
| ZNF75D | no change | no change | 0.22 | -0.6 | inactive |
| ZNF597 | no change | no change | 0.18 | 0.8 | inactive |
| OXSR1 | no change | no change | -0.11 | 0.74 | inactive |
| MOV10 | no change | no change | -1.25 | -1.04 | inactive |
| SPPL2B | no change | no change | -1.72 | 0.79 | inactive |
| LRG1 | no change | no change | 0.42 | -0.72 | inactive |
| ZKSCAN8 | no change | no change | -0.42 | 1.34 | inactive |
| RBM22 | no change | no change | -0.9 | 3 | inactive |
| UGT2B7 | no change | no change | -1.57 | -0.14 | inactive |
| SLC10A6 | no change | no change | 0.78 | -0.53 | inactive |
| ZNF518A | no change | no change | -0.2 | 1.82 | inactive |
| KLHDC2 | no change | no change | 1 | 1.04 | inactive |
| ATP10B | no change | no change | 0.92 | -0.52 | inactive |

Already shown: entries from further up.
| Gene | viability hit class | caspase hit class | viability robust z-score | caspase robust z-score | activity call |
| --- | --- | --- | --- | --- | --- |
| SPPL2B | no change | no change | -1.72 | 0.79 | inactive |
| LRG1 | no change | no change | 0.42 | -0.72 | inactive |
| ZKSCAN8 | no change | no change | -0.42 | 1.34 | inactive |
